For one molecule, binding results are on record in paper PMC6166131.

This experiment addresses T1, ARABIDOPSIS HOMOLOG OF TRITHORAX1 (ATX1), full-length, Gal4 BD fusion (Arabidopsis thaliana) (UniProt Q9C5X4).
T1 sequence: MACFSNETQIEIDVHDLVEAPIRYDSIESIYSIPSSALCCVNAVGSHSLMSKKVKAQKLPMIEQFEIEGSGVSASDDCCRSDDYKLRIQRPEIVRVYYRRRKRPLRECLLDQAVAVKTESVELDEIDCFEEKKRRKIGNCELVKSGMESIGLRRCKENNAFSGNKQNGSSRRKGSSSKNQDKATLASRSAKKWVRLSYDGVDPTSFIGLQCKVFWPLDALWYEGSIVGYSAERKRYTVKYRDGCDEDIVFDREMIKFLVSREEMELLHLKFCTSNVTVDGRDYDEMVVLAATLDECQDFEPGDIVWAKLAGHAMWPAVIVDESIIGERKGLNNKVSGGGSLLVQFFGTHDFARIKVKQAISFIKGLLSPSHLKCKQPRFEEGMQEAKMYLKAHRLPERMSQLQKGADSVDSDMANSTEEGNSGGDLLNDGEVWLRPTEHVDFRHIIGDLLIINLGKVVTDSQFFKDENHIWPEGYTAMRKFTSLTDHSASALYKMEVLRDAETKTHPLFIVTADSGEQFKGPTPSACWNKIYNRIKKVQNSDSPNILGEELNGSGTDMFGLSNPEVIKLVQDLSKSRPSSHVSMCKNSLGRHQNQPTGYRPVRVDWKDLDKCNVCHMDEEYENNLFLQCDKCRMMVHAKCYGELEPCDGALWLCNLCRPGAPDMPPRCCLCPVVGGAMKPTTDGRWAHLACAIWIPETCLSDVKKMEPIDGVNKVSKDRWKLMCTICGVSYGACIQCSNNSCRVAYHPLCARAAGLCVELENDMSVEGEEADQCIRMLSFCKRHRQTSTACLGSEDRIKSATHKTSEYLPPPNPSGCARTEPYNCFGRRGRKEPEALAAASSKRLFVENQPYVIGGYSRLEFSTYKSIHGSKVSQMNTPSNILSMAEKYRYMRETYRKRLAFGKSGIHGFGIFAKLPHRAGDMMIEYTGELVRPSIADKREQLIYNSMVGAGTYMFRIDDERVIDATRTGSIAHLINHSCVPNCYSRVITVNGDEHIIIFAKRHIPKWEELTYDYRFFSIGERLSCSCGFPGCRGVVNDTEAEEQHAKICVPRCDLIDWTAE
Put plainly: two-hybrid; BD-ATX1 (bait, pGBKT7) cotransformed with AD-SEC or AD-SEC-N (prey, pGADT7) into S. cerevisiae AH109; growth on SD/-Leu/-Trp, then screened on SD/-Leu/-Trp/-His/-Ade.

Results are given in words; binding and its absence hold for the method and conditions named. Some entries that bind do so weakly or less than the wild type. Sequences can lack the tags named with a protein.

B1: SECRET AGENT (SEC), full-length, Gal4 AD fusion (enzyme, UniProt Q9M8Y0 1-977)
chain: MISSKNGAAMISRPVFLSDRVDEVFSRKLDLSVSSSSSSSLLQQFNKTHEGDDDARLALAHQLYKGGDFKQALEHSNMVYQRNPLRTDNLLLIGAIYYQLQEYDMCIARNEEALRIQPQFAECYGNMANAWKEKGDTDRAIRYYLIAIELRPNFADAWSNLASAYMRKGRLSEATQCCQQALSLNPLLVDAHSNLGNLMKAQGLIHEAYSCYLEAVRIQPTFAIAWSNLAGLFMESGDLNRALQYYKEAVKLKPAFPDAYLNLGNVYKALGRPTEAIMCYQHALQMRPNSAMAFGNIASIYYEQGQLDLAIRHYKQALSRDPRFLEAYNNLGNALKDIGRVDEAVRCYNQCLALQPNHPQAMANLGNIYMEWNMMGPASSLFKATLAVTTGLSAPFNNLAIIYKQQGNYSDAISCYNEVLRIDPLAADALVNRGNTYKEIGRVTEAIQDYMHAINFRPTMAEAHANLASAYKDSGHVEAAITSYKQALLLRPDFPEATCNLLHTLQCVCCWEDRSKMFAEVESIIRRQINMSVLPSVQPFHAIAYPIDPILALEISRKYAAHCSIIASRFGLPPFTHPAGLPVKREGGFKRLRIGYVSSDFGNHPLSHLMGSVFGMHNRENVEVFCYALSANDNTEWRQRIQSEAEHFLDVSAMSSDAIAKIINQDKIQILINLNGYTKGARNEIFAMQPAPIQVSYMGFPGTTGATYIDYLVTDEFVSPLQYAHIYSEKLVHLPHCYFVNDYKQKNQDVLDPNSKPKRSDYGLPEDKFIFACFNQLYKMDPEIVNTWCNILKRVPNSALWLLRFPAAGEMRFRTYAAAQGVQPDQIIFTDVAMKSEHIRRSVLADVILDTPLCNGHTTGTDVLWAGVPMITLPLEKMATRVAGSLCLATGLGHGMIVNSLEEYEEKAVSLALNKPKLQALTKELRASRLTCPLFDTMRWVKNLERSYFKMWNLHCSGQQPQHFKVLENDLEFPHDR
Take B1: the binding result was “binds”.
